Assay results as given in PubChem BioAssay AID504467 (National Center for Advancing Translational Sciences (NCATS), 2011).
In all, about 330,000 compounds went through this assay and about 7,700 (2.3%) were called active. The inconclusive results got no clear call from the source; some entries with a clear call stand among them for comparison. The call rests on the fitted dose curve; in most records, active means well fitted inhibition curve with a large enough effect; inconclusive means small, poorly fitted or top-dose-only effect, or effect the other way; inactive means flat fitted curve, though single readings scatter. Potencies of inconclusive entries are doubtful fits and often do not repeat.

Assay: qHTS screen for small molecules that inhibit ELG1-dependent DNA repair in human embryonic kidney (HEK293T) cells expressing luciferase-tagged ELG1; further: nearly all actives have a fitted effect of over 55% in size
Conditions: HEK293T ELG1-luciferase reporter, luminescence, 16 h, DNA damage induced by 5-fluorouridine; activity change, negative = inhibition: at 46.1 µM (top of the series)
Method in brief: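 5-Fluorouridine DNA damage + compound/DMSO, 2,000 cells/well, 16 h, 37 °C/5% CO2. ONE-Glo, 30 min RT, luminescence. Readout = decrease in reporter signal.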
On the % scale 0 is the no-effect control and ±100 the full control effect; potency means the concentration at half of the fitted maximal effect.

SMILES	Potency	activity change, negative = inhibition
CCCCOC(=O)Nc1ccc(S(=O)(=O)Nc2ncccn2)cc1	inconclusive: 8.2 µM [activator, partial curve, poor fit]	
O=C(C[n+]1ccc2ccccc2c1)c1ccccc1	inconclusive: 18.3 µM [activator, partial curve, poor fit]	
Cc1cc(C(=O)Nc2nc3ccc(Cl)cc3s2)nn1C	inconclusive: 2.31 µM [activator, partial curve]	
CCC(Oc1ccccc1)C(=O)Nc1ccccn1 (stereo not given)	inconclusive: 20.6 µM [activator, single point]	
N#C/C(=C(/O)COc1ccc(Br)cc1)c1nnc2n1CCCCC2		inactive: 6.18%
c1ccc2c(c1)CCN2CCN1CCc2ccccc21		inactive: 2.2%
Cc1nc2ccccn2c1C(=O)/C=C/c1cccc([N+](=O)[O-])c1	inconclusive: 3.26 µM [inhibitor, single point]	
CC(C)C(=O)N1CCN(c2ccccc2NC(=S)NC(=O)/C=C/c2ccco2)CC1	inconclusive: 32.6 µM [inhibitor, single point]	
Cc1ccc(Nc2nc3nonc3[nH]c2=O)cc1C	inconclusive: 29.1 µM [activator, partial curve, poor fit]	
O=C(c1ccccc1)c1c[nH]c(C(=O)NNc2ccccc2)c1	inconclusive: 32.6 µM [inhibitor, single point]	
CCOc1ccc(-n2cc(C(=O)NCCOC)c3cc(OC)c(OC)cc3c2=O)cc1		inactive: 7.74%
Cc1ccc(NC(=O)CNc2cc(S(=O)(=O)N3CCOCC3)ccc2N2CCOCC2)cc1S(=O)(=O)N(C)C	inconclusive: 18.3 µM [inhibitor, partial curve]	
COc1ccc(Br)cc1C1CC(=O)N2CN(Cc3ccccc3)CSC2=C1C#N (stereo not given)		inactive: 1.6%
CCCn1c2ccccc2c2cnn(CC(=O)NC3CCCC(C)C3C)c(=O)c21 (stereo not given)		inactive: 9.82%
N#Cc1ccc(CSc2nc(N)cc(N)n2)cc1	inconclusive: 1.16 µM [activator, partial curve, poor fit]	
CCN(CC)C(=O)c1cc2c(=O)n3cccc(C)c3nc2n1C	inconclusive: 29.1 µM [inhibitor, single point]	
CC(=O)Nc1nc(-c2ccccc2)ns1	inconclusive: 16.4 µM [activator, partial curve]	
O=C(CNCc1cccc(Cl)c1)N1CCc2ccccc2C1	inconclusive: 2.06 µM [activator, single point]	
COc1cc2c(cc1OC)CN(c1ccc([N+](=O)[O-])cc1C#N)CC2	inconclusive: 20.6 µM [inhibitor, single point]	
CSCC(=O)Nc1cc(C)on1	inconclusive: 3.26 µM [activator, partial curve, poor fit]	
COc1ccc(S(=O)(=O)N(C)C[C@H]2Oc3ccc(NC(=O)Nc4ccccc4)cc3C(=O)N([C@H](C)CO)C[C@@H]2C)cc1	inconclusive: 23.1 µM [inhibitor, single point]	
CN(CC(=O)NCc1ccco1)S(=O)(=O)c1ccc2c(c1)c(=O)n(C)c(=O)n2C		inactive: 5.22%
CC(C)(C)c1ccc(O)c(/C=N\O)c1	inconclusive: 29.1 µM [activator, single point]	
Cc1sc2ncnc(Sc3nnnn3-c3ccccc3)c2c1C	inconclusive: 23.1 µM [inhibitor, single point]	

SMILES	Potency	activity change, negative = inhibition
COCCCNC(=S)N/N=C/c1ccc(N(C)C)cc1	inconclusive: 14.6 µM [activator, single point]	
CN(C(=O)c1ccc(S(=O)(=O)c2cccc(Cl)c2)c([N+](=O)[O-])c1)C1CCCCC1	inconclusive: 18.4 µM [inhibitor, partial curve]	
O=C(O)c1cc(-c2ccccc2)n(-c2ccc(Cl)cc2Cl)n1	inconclusive: 16.4 µM [inhibitor, partial curve]	
CC(=O)Nc1ccc(-c2cn3cc(C)ccc3n2)cc1	inconclusive: 3.66 µM [activator, partial curve]	
O=C(O)Cc1ccc2sc(-c3ccccc3)nc2c1	inconclusive: 23.1 µM [activator, single point]	
O=C(/C=C/c1ccc(F)cc1)NC(=S)NNC(=O)c1cnccn1	active: 2.31 µM	
Cc1ccc(OCC(=O)Nc2ccc(N3CCN(C(=O)c4ccco4)CC3)cc2)cc1C	inconclusive: 25.9 µM [inhibitor, single point]	
Cc1cccc(Nc2nc(NCc3ccco3)c3ccccc3n2)c1	inconclusive: 4.61 µM [inhibitor, partial curve, poor fit]	
COCCNC(=O)c1cn(C)c2ccc(S(=O)(=O)N(C)C3CCCCC3)cc2c1=O	inconclusive: 8.2 µM [inhibitor, partial curve]	
CCc1nc(N2CCN(C(=O)c3ccco3)CC2)c(C#N)c2c1COC(C)(C)C2	inconclusive: 18.3 µM [inhibitor, single point]	
Cc1csc(NC(=O)c2cccc(S(=O)(=O)N3CCCCC3)c2)n1	inconclusive: 18.4 µM [inhibitor, single point]	
COc1cc(N)c(Cl)cc1C(=O)OCC(=O)Nc1cccnc1Cl		inactive: -2.6%
N#Cc1ccc(OCC(=O)OCC(=O)c2ccccc2)cc1	inconclusive: 16.4 µM [activator, single point]	
CN(C)S(=O)(=O)c1cccc(NC(=S)Nc2cccc3cnccc23)c1	active: 20.6 µM	
CCOc1ccc(/C=C2\CCc3ccccc3C2=O)cc1	inconclusive: 2.91 µM [activator, partial curve]	
COc1cc(C(=S)N2CCCC2)ccc1OS(=O)(=O)c1ccc(NC(C)=O)cc1	inconclusive: 16.4 µM [inhibitor, partial curve, poor fit]	
Cn1cccc1C(=O)NC(=O)COC(=O)CNC(=O)c1ccc(Cl)cc1Cl		inactive: -18.8%
COC(=O)Cc1ccc(NC(=O)c2ccc(C)c(C)c2)cc1	inconclusive: 2.59 µM [activator, partial curve]	
COc1cc(C(=O)NC(CCSC)C(=O)OCc2cc([N+](=O)[O-])cc3c2OCOC3)cc(OC)c1OC (stereo not given)	inconclusive: 29.1 µM [inhibitor, single point]	
Cc1onc(-c2ccccc2Cl)c1C(=O)N(C)Cc1ccccc1		inactive: 8.03%
O=C(C1CCN(S(=O)(=O)c2c(Cl)cccc2Cl)CC1)N1CCCCCCC1	inconclusive: 18.3 µM [inhibitor, single point]	
O=C(CCS(=O)(=O)c1ccccc1)Nc1ccc(-c2nc3ccccc3s2)cc1	inconclusive: 2.06 µM [activator, partial curve]	
CC(/C=C/c1ccccc1)=N/NC(=O)c1cnccn1	inconclusive: 9.2 µM [activator, partial curve]	
O=C(NNC(=O)c1cccs1)c1cccc(F)c1	inconclusive: 23.1 µM [activator, single point]	

Fetched by structure from the list above, 5 records:
SMILES	Potency	activity change, negative = inhibition
Cc1ccc(Nc2nc3nonc3[nH]c2=O)cc1C	inconclusive: 29.1 µM [activator, partial curve, poor fit]	
Cc1sc2ncnc(Sc3nnnn3-c3ccccc3)c2c1C	inconclusive: 23.1 µM [inhibitor, single point]	
N#Cc1ccc(OCC(=O)OCC(=O)c2ccccc2)cc1	inconclusive: 16.4 µM [activator, single point]	
c1ccc2c(c1)CCN2CCN1CCc2ccccc21		inactive: 2.2%
N#C/C(=C(/O)COc1ccc(Br)cc1)c1nnc2n1CCCCC2		inactive: 6.18%

(cont.)

SMILES	Potency	activity change, negative = inhibition
CC(=O)c1ccc(OCCCC(=O)NCCc2ccc(C(F)(F)F)cc2)cc1		inactive: -10.8%
Cc1ccc(Cl)c(OCC(=O)NCC(c2cccs2)N2CCOCC2)c1 (stereo not given)	inconclusive: 10.3 µM [inhibitor, partial curve, poor fit]	
CNC(=S)N1N=C(c2ccc(OC)cc2)CC1c1ccc(Cl)cc1Cl (stereo not given)	active: 4.61 µM	
CCCc1cc2c(cc1NC(=O)c1ccco1)OCO2		inactive: 1.9%
CCC/C(=N\NC(=O)c1csc(C)c1C)c1cccs1	inconclusive: 11.6 µM [activator, partial curve]	
CCc1ccccc1NC(=O)c1cccc(NC(=O)/C=C/c2ccco2)c1	inconclusive: 32.6 µM [inhibitor, single point]	
O=C(/C=C/c1ccco1)NCC1COc2ccccc2O1 (stereo not given)	inconclusive: 0.0259 µM [activator, full curve, poor fit]	
CC(C)n1c(=O)n(CC(=O)NCC2CCCO2)c(=O)c2c3c(sc21)COC(C)(C)C3 (stereo not given)		inactive: 5.54%
COc1ccc(C(=O)OCC(=O)c2ccc3[nH]c(=O)[nH]c3c2)c(OC)c1OC		inactive: -5.56%
CC(C)(C)c1ccc(-c2n[nH]c(=S)n2CC2CCCO2)cc1 (stereo not given)	inconclusive: 23.1 µM [inhibitor, partial curve]	
O=C(NC(=S)Nc1ccc(Cl)cn1)C12CC3CC(CC(C3)C1)C2	inconclusive: 5.8 µM [activator, partial curve]	
CCCCCCCCCCOC(=O)c1csc2nnsc12		inactive: 13.1%
Cc1cnc(CNC(=O)C2CCC(=O)N(Cc3ccc(Cl)cc3)C2)[nH]1 (stereo not given)		inactive: 5.95%
COc1cccc2cc(-c3nnc(SCC(=O)Nc4ccc(NC(C)=O)cc4)n3C)oc12		inactive: 4.8%
CCCCn1nc(C(=O)NCC(c2cccs2)N2CCOCC2)c2ccccc2c1=O (stereo not given)	active: 18.3 µM	
Cc1cc(C)n(CC(O)COc2ccc(Cl)cc2Cl)n1 (stereo not given)	inconclusive: 2.06 µM [activator, partial curve]	
COc1ccc(/C=C(/C#N)C(=O)Nc2ccccc2C)cc1C(=O)O	inconclusive: 23.1 µM [activator, single point]	
COc1cccc(/C=C/c2ccccn2)c1O	inconclusive: 2.31 µM [activator, full curve]	
CCCCNC(=O)C(=O)N/N=C/c1cccc(Br)c1		inactive: 5.86%
CC(=O)c1ccc(OCC(=O)c2cc(C)n(-c3ccc4c(c3)OCO4)c2C)cc1	inconclusive: 16.4 µM [inhibitor, partial curve, poor fit]	
O=C(O)c1ccccc1OCCOc1ccccc1C(=O)O		inactive: 14.5%
Fc1ccc(-n2cc(CNCCc3cccnc3)c(-c3ccccc3Cl)n2)cc1	inconclusive: 20.6 µM [inhibitor, single point]	
